Assay results: patent publication US20040115666A1, “Method for identifying compounds modulating reverse cholesterol transport” (priority 2001, published 2004)
No constants are given. Whether binding was seen depends on the method and setting. Some entries that bind do so weakly or less than the wild type.

Target: T1, mRXRα (mouse) (UniProt P28700)
T1 sequence (looked up): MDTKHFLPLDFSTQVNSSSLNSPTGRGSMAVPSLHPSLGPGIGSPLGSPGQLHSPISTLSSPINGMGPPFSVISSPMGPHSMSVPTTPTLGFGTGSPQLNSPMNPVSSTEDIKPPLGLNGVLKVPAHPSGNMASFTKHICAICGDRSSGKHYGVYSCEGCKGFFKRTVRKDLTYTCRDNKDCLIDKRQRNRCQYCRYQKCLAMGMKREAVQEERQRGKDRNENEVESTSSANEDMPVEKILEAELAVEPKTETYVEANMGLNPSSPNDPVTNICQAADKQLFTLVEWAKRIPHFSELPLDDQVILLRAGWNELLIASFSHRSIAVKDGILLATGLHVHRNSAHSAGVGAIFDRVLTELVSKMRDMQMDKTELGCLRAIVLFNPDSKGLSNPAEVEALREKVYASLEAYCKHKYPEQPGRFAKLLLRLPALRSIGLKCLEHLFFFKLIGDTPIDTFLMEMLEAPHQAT
Assay: gel shift (EMSA) with in vitro translated hFXR and mRXRα on labelled DNA probes of the apo A-I promoter

binding: binds
B1: hFXR (receptor, human, UniProt Q96RI1-2 1-472, looked up)
chain: MGSKMNLIEHSHLPTTDEFSFSENLFGVLTEQVAGPLGQNLEVEPYSQYSNVQFPQVQPQISSSSYYSNLGFYPQQPEEWYSPGIYELRRMPAETLYQGETEVAEMPVTKKPRMGASAGRIKGDELCVVCGDRASGYHYNALTCEGCKGFFRRSITKNAVYKCKNGGNCVMDMYMRRKCQECRLRKCKEMGMLAECLLTEIQCKSKRLRKNVKQHADQTVNEDSEGRDLRQVTSTTKSCREKTELTPDQQTLLHFIMDSYNKQRMPQEITNKILKEEFSAEENFLILTEMATNHVQVLVEFTKKLPGFQTLDHEDQIALLKGSAVEAMFLRSAEIFNKKLPSGHSDLLEERIRNSGISDEYITPMFSFYKSIGELKMTQEEYALLTAIVILSPDRQYIKDREAVEKLQEPLLDVLQKLCKIHQPENPQHFACLLGRLTELRTFNHHHAEMLMSWRVNDHKFTPLLCEIWDVQ
